# Structures can show the parent of a compound that is named as a salt. At least one structure is not confirmed: it was looked up by name or label, or the drawing left a doubt.
# Assay: Glutathione depletion assay (Michael reaction with reduced glutathione followed by 1H NMR)
# Conditions: 2 equiv. reduced glutathione, d6-DMSO, 35° C.
# Text: See, for example, Lehmann et al. Dimethyfumarate Induces Immunosuppression via Glutathione Depletion and Subsequent Induction of Heme Oxygenase 1, Journal of Investigative Dermatology (2007) 127, 835-845. Accordingly, the present compounds may be assessed in vitro by reaction with glutathione as follows:
# (with the top securely fastened).
# In all the above cases, dis-appearance of the alkene proton signals from the starting material are used to determine the extent of Michael reaction with glutathione.
# As would be understood by those of skill in the art, the above experiments can be repeated by varying the equivalents of reduced glutathione (0.5 to 2 equivalents); the reactions can also be run in a mixture of d6-DMSO and D2O; and the temperature of the reaction can also be varied from room temperature to 35° C. (35° C. being used to mimic body temperature). As used herein “majority reaction” means a greater than 50% reduction in alkene proton signal as observed by ^1H NMR.
structure (smiles),measurement,value
"COC(=O)/C=C/C(=O)O [Monomethyl fumarate, reference compound]",time to majority reaction with glutathione (greater than 50% reduction in alkene proton signal by 1H NMR),≤ 27 h

# Reference: patent US11279686B2, “Nrf2 activating compounds and uses thereof” (Rigel Pharmaceuticals, Inc., priority 2016, dated 2022)
